Results are given in words; binding and its absence hold for the method and conditions named. Binding seen in cells or lysates may run through a third protein. Some results given as binding are weak or reduced against the parent protein; the word gives no strength.

Chains of the proteins cited; added tags and fusions are not shown.
UniProt Q6ZRS2: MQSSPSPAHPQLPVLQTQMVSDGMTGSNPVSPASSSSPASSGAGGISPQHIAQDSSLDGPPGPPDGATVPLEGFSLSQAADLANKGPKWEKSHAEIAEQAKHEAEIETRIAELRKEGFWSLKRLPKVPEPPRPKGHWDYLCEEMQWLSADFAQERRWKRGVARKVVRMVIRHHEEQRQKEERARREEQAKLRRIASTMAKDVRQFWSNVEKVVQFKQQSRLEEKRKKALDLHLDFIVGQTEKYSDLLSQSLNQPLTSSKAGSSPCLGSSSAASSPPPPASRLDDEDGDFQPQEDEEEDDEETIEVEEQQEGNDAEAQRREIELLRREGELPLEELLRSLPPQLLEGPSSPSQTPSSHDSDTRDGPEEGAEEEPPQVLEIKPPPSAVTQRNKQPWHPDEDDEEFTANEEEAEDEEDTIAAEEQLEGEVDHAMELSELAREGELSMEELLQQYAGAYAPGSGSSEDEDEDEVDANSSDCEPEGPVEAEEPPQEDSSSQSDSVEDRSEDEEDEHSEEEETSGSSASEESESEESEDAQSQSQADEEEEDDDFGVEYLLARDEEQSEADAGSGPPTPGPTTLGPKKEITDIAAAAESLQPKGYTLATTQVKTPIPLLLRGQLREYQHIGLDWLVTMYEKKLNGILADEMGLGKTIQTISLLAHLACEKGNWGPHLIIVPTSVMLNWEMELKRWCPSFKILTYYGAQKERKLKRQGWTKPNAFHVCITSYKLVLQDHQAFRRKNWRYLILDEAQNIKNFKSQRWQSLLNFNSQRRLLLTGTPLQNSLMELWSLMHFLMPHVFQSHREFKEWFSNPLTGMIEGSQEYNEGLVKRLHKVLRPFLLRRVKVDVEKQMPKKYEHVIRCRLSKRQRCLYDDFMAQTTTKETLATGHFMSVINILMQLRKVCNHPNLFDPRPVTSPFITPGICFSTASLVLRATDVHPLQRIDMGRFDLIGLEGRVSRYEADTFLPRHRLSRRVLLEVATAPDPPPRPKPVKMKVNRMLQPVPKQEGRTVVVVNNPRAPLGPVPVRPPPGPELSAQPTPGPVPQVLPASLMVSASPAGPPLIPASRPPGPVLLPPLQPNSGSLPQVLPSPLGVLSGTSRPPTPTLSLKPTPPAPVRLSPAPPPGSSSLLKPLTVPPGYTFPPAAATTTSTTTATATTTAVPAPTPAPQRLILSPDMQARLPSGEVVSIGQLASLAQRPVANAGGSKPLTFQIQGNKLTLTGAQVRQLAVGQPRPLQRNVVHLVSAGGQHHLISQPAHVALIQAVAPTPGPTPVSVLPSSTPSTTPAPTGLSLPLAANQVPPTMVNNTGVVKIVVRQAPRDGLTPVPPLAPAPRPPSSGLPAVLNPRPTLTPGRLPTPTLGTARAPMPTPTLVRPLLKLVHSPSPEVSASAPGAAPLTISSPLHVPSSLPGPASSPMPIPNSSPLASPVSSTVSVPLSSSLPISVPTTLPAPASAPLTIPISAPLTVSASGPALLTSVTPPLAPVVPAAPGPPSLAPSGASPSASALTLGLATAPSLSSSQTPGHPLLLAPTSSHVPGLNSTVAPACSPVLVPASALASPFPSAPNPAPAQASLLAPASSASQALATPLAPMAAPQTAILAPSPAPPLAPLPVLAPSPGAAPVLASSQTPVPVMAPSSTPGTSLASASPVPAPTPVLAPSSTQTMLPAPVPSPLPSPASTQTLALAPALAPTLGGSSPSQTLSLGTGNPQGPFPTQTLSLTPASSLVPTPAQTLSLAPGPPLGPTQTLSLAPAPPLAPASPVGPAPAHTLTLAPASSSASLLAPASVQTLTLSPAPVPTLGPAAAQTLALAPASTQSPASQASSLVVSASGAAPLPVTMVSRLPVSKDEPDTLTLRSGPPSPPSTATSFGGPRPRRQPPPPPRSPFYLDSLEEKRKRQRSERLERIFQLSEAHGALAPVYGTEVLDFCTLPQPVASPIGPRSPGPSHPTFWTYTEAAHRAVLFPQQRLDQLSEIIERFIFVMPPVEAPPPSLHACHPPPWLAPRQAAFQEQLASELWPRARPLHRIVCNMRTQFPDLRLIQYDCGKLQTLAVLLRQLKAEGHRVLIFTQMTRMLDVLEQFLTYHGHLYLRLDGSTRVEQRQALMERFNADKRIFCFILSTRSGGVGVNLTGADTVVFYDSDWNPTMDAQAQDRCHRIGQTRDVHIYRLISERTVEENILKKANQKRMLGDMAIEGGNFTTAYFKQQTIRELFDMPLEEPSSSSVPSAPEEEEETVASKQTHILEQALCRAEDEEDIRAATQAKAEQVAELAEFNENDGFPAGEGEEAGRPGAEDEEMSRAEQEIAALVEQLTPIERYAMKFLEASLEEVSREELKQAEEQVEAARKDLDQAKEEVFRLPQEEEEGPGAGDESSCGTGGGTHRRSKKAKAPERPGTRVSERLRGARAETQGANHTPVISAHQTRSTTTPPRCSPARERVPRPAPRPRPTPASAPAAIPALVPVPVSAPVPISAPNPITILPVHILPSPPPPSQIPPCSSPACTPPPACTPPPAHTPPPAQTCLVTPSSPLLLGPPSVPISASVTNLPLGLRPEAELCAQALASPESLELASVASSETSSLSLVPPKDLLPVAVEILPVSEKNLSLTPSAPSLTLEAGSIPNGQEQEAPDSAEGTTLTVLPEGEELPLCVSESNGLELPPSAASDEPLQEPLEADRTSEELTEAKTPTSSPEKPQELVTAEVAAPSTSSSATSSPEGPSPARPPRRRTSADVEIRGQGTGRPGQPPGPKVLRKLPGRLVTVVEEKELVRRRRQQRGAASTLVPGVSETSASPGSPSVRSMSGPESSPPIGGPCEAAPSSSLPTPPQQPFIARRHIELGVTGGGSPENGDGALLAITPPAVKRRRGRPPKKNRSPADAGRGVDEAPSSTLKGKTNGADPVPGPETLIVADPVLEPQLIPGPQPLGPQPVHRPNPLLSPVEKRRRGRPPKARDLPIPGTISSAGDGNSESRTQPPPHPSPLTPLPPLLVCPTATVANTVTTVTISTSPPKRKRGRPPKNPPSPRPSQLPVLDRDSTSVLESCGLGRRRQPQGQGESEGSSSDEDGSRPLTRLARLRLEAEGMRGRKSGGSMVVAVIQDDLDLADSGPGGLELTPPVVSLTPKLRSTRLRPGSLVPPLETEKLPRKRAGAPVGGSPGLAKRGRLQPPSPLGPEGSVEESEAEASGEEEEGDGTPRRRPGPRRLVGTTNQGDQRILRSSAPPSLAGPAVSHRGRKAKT
UniProt Q96GD4: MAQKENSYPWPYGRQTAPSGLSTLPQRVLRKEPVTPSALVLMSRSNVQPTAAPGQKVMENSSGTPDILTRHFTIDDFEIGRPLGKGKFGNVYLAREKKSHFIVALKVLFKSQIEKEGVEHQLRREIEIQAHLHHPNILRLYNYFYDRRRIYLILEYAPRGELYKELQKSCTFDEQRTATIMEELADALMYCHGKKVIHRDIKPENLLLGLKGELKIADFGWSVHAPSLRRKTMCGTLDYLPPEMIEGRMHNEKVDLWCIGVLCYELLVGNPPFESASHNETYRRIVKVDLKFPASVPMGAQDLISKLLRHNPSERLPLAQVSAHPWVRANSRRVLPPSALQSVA
UniProt Q8WUM4: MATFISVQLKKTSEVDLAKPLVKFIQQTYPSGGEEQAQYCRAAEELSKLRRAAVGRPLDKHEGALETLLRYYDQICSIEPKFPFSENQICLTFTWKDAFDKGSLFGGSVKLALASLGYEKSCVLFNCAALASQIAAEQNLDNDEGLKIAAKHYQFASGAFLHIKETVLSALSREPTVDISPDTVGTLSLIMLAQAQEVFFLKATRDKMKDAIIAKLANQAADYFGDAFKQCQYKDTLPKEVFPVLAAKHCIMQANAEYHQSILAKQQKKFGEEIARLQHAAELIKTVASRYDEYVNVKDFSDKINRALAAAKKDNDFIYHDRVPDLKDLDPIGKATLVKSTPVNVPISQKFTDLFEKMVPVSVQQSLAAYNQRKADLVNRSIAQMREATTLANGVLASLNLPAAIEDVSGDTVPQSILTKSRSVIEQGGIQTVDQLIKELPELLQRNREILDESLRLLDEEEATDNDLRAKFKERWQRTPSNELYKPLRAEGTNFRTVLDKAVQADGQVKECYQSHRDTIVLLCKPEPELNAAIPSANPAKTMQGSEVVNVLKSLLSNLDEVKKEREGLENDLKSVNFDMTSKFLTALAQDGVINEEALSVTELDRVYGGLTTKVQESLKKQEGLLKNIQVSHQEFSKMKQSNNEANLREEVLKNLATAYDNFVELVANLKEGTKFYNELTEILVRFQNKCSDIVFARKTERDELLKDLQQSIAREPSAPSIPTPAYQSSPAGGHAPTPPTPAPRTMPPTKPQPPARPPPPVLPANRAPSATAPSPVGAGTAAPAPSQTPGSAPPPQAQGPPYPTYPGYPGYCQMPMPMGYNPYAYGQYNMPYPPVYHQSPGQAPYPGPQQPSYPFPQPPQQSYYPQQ
UniProt O95235: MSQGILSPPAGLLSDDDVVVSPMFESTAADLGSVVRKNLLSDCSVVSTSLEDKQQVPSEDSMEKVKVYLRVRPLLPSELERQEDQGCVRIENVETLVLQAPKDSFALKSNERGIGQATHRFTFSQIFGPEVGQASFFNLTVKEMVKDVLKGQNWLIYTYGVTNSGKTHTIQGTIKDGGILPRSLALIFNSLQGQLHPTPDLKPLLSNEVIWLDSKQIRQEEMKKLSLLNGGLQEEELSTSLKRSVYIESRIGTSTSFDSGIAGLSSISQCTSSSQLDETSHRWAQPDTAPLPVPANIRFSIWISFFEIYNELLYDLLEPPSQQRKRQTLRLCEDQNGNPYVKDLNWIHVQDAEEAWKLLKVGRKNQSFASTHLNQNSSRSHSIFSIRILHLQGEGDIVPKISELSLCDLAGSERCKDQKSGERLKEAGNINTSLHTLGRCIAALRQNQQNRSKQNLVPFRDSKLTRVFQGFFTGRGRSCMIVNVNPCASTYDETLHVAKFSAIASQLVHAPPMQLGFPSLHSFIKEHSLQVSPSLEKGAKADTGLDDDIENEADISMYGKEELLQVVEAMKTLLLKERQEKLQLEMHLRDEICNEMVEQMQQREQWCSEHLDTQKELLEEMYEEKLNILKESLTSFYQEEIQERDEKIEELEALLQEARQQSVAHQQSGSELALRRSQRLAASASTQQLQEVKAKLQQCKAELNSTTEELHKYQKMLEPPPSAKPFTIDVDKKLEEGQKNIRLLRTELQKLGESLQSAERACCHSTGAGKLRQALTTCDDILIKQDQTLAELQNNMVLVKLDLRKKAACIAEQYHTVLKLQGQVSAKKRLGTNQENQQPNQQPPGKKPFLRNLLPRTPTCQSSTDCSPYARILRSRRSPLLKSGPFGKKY
UniProt P53350: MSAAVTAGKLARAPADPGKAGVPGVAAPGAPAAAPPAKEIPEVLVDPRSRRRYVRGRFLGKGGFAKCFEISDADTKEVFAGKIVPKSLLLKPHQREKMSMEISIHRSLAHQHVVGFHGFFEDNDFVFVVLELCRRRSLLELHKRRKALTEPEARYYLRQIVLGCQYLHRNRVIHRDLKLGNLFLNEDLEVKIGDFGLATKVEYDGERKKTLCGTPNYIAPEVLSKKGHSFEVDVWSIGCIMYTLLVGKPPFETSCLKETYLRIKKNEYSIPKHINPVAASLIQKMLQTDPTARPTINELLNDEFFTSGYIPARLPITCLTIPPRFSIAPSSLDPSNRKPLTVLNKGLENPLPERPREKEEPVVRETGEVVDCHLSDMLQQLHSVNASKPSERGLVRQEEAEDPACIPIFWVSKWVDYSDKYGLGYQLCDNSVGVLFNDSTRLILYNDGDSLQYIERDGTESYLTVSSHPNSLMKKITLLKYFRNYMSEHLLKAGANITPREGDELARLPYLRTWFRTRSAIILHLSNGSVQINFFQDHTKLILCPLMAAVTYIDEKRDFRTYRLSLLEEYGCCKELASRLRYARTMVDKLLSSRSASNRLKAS

For eight molecules, binding results are on record in doi:10.1101/2020.09.12.294645.

B1: CEP55 (protein, UniProt Q53EZ4 1-464)
chain: MSSRSTKDLIKSKWGSKPSNSKSETTLEKLKGEIAHLKTSVDEITSGKGKLTDKERHRLLEKIRVLEAEKEKNAYQLTEKDKEIQRLRDQLKARYSTTTLLEQLEETTREGERREQVLKALSEEKDVLKQQLSAATSRIAELESKTNTLRLSQTVAPNCFNSSINNIHEMEIQLKDALEKNQQWLVYDQQREVYVKGLLAKIFELEKKTETAAHSLPQQTKKPESEGYLQEEKQKCYNDLLASAKKDLEVERQTITQLSFELSEFRRKYEETQKEVHNLNQLLYSQRRADVQHLEDDRHKTEKIQKLREENDIARGKLEEEKKRSEELLSQVQFLYTSLLKQQEEQTRVALLEQQMQACTLDFENEKLDRQHVQHQLHVILKELRKARNQITQLESLKQLHEFAITEPLVTFQGETENREKVAASPKSPTAALNESLVECPKCNIQYPATEHRDLLVHVEYCSK
B2: Spastin (enzyme, UniProt Q9UBP0 1-616)
chain: MNSPGGRGKKKGSGGASNPVPPRPPPPCLAPAPPAAGPAPPPESPHKRNLYYFSYPLFVGFALLRLVAFHLGLLFVWLCQRFSRALMAAKRSSGAAPAPASASAPAPVPGGEAERVRVFHKQAFEYISIALRIDEDEKAGQKEQAVEWYKKGIEELEKGIAVIVTGQGEQCERARRLQAKMMTNLVMAKDRLQLLEKMQPVLPFSKSQTDVYNDSTNLACRNGHLQSESGAVPKRKDPLTHTSNSLPRSKTVMKTGSAGLSGHHRAPSYSGLSMVSGVKQGSGPAPTTHKGTPKTNRTNKPSTPTTATRKKKDLKNFRNVDSNLANLIMNEIVDNGTAVKFDDIAGQDLAKQALQEIVILPSLRPELFTGLRAPARGLLLFGPPGNGKTMLAKAVAAESNATFFNISAASLTSKYVGEGEKLVRALFAVARELQPSIIFIDEVDSLLCERREGEHDASRRLKTEFLIEFDGVQSAGDDRVLVMGATNRPQELDEAVLRRFIKRVYVSLPNEETRLLLLKNLLCKQGSPLTQKELAQLARMTDGYSGSDLTALAKDAALGPIRELKPEQVKNMSASEMRNIRLSDFTESLKKIKRSVSPQTLEAYIRWNKDFGDTTV
B3: Anillin (protein, UniProt Q9NQW6 1-1124)
chain: MDPFTEKLLERTRARRENLQRKMAERPTAAPRSMTHAKRARQPLSEASNQQPLSGGEEKSCTKPSPSKKRCSDNTEVEVSNLENKQPVESTSAKSCSPSPVSPQVQPQAADTISDSVAVPASLLGMRRGLNSRLEATAASSVKTRMQKLAEQRRRWDNDDMTDDIPESSLFSPMPSEEKAASPPRPLLSNASATPVGRRGRLANLAATICSWEDDVNHSFAKQNSVQEQPGTACLSKFSSASGASARINSSSVKQEATFCSQRDGDASLNKALSSSADDASLVNASISSSVKATSPVKSTTSITDAKSCEGQNPELLPKTPISPLKTGVSKPIVKSTLSQTVPSKGELSREICLQSQSKDKSTTPGGTGIKPFLERFGERCQEHSKESPARSTPHRTPIITPNTKAIQERLFKQDTSSSTTHLAQQLKQERQKELACLRGRFDKGNIWSAEKGGNSKSKQLETKQETHCQSTPLKKHQGVSKTQSLPVTEKVTENQIPAKNSSTEPKGFTECEMTKSSPLKITLFLEEDKSLKVTSDPKVEQKIEVIREIEMSVDDDDINSSKVINDLFSDVLEEGELDMEKSQEEMDQALAESSEEQEDALNISSMSLLAPLAQTVGVVSPESLVSTPRLELKDTSRSDESPKPGKFQRTRVPRAESGDSLGSEDRDLLYSIDAYRSQRFKETERPSIKQVIVRKEDVTSKLDEKNNAFPCQVNIKQKMQELNNEINMQQTVIYQASQALNCCVDEEHGKGSLEEAEAERLLLIATGKRTLLIDELNKLKNEGPQRKNKASPQSEFMPSKGSVTLSEIRLPLKADFVCSTVQKPDAANYYYLIILKAGAENMVATPLASTSNSLNGDALTFTTTFTLQDVSNDFEINIEVYSLVQKKDPSGLDKKKKTSKSKAITPKRLLTSITTKSNIHSSVMASPGGLSAVRTSNFALVGSYTLSLSSVGNTKFVLDKVPFLSSLEGHIYLKIKCQVNSSVEERGFLTIFEDVSGFGAWHRRWCVLSGNCISYWTYPDDEKRKNPIGRINLANCTSRQIEPANREFCARRNTFELITVRPQREDDRETLVSQCRDTLCVTKNWLSADTKEERDLWMQKLNQVLVDIRLWQPDACYKPIGKP

This experiment addresses SNF2-Related CBP Activator Protein (ATPase SRCAP) (human (endogenous in HeLa)) (UniProt Q6ZRS2). As to the kind of experiment: co-IP.
For “Aurora B (from UniProt Q96GD4 1-344) (enzyme)”, the binding result is on record as “binds”. To CIT-K (from UniProt O14578 1-2027) belongs “binds”; to Alix (from UniProt Q8WUM4 1-868), “binds”; to MKLP2 (from UniProt O95235 1-890), “binds”. For “PLK1 (from UniProt P53350 1-603) (enzyme)”, the binding result is listed as “binds”. The value for B1 was “binds”. The value for B2 was “binds”; that for B3 was “binds”.
